# Certain results were filed several times, with different values. This list holds those alone. An entry can have further records. Values that stand side by side read as repeated measurements on other runs, samples or individuals; one of them may be the mean.
# Sequences of proteins named here, by UniProt entry; tags and fusion partners are left off.
# UniProt P21453, whole entry: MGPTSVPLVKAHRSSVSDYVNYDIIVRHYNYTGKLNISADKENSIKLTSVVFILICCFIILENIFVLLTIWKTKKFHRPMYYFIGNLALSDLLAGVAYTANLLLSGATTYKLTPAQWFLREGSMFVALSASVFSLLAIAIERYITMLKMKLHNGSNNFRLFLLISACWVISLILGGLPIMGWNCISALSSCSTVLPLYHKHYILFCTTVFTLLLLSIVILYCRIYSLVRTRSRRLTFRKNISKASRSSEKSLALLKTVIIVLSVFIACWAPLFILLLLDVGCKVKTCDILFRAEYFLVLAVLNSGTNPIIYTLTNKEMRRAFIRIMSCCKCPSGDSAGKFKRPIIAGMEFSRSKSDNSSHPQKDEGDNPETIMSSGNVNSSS
# Target: S1P1 (Homo sapiens, UniProt P21453)
# Assay: Desensitization of S1P-induced BNCI response in HUVEC (second stimulation with 80 nM S1P)
# Type: cell-based
# Settings: desensitization IC50 / early phase EC50, geometric mean
structure (smiles),measurement,value
Cc1cc(-c2nc3cnc(Oc4cccc(Cl)c4)nc3o2)cc(C)c1OCC(=O)O [SAR247799],Activation-to-desensitization ratio [95% CI],114 (91.1–143) and 114 [91.1–143] and 114

# Reference: PMC7530392, “A label‐free impedance assay in endothelial cells differentiates the activation and desensitization properties of clinical S1P1 agonists” (FEBS Open Bio, 2020)
